Data as given in PubChem BioAssay AID1259284 (Sanger Institute, 2017).

Test: 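Kinase knock-downs that cut colorectal cancer cell growth alone or with targeted drugs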 (primary screen)
System: SW48 human colorectal cancer cells
Reagent: siRNA pool against human genes
Challenge: anchor drug BYL719 at 1 µM, cetuximab at 5 µg/ml or trametinib at 10 nM, or DMSO vehicle alone
Detection: 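Viability scaled to non-targeting control pool, robust z-score from controls, and synergy scores for each drug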
Direction: robust z-score, no drug: higher = more cells survive knock-down; viability, no drug: higher = more viable cells
Units: viability, no drug in fraction of control
Call rule: 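a knock-down is essential if viability without drug gives a robust z-score under -3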
Calls: active = essential without drug; inactive = no change without drug
In all, the deposit lists 794 reagents; this is a random part of them. 16 of all reagents (2%) were called active. 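Calls concern knock-down without drug only; drug synergy was judged apart, with scores above 0.15 taken as synergy.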 No viability above 1 is reported: the scale is capped. Further read-outs or replicates are left out here. Reagent sequences are not shown. Not given: the amount of reagent, the time to read-out.

For PSKH1 [SID135620975], how do the results read?
robust z-score, no drug: 0.426; viability, no drug: 1; Outcome: inactive

With STK36 [SID135620924], how do the results read?
robust z-score, no drug: 0.426; viability, no drug: 1; Outcome: inactive

With NEK1 [SID152155530], how do the results read?
robust z-score, no drug: 0.426; viability, no drug: 1; Outcome: inactive

For EPHA10 [SID135620971], what does the deposit list?
robust z-score, no drug: -0.311; viability, no drug: 0.937; Outcome: inactive

What did the screen give for DGKQ [SID56478983]?
robust z-score, no drug: 0.426; viability, no drug: 1; Outcome: inactive

With STK38 [SID152149792], what does the deposit list?
robust z-score, no drug: -2.96; viability, no drug: 0.71; Outcome: inactive

With GUK1 [SID152156775], what does the deposit list?
robust z-score, no drug: 0.0785; viability, no drug: 0.97; Outcome: inactive

Which result is listed for PTPRU [SID152150387]?
robust z-score, no drug: 0.426; viability, no drug: 1; Outcome: inactive

For PRKCQ [SID56478674], what does the deposit list?
robust z-score, no drug: 0.426; viability, no drug: 1; Outcome: inactive

With SCYL1 [SID152146872], what was measured?
robust z-score, no drug: 0.426; viability, no drug: 1; Outcome: inactive

With MAST4 [SID135625002], what does the deposit list?
robust z-score, no drug: 0.426; viability, no drug: 1; Outcome: inactive

How did the screen score PNKP [SID56479144]?
robust z-score, no drug: 0.354; viability, no drug: 0.994; Outcome: inactive

With PKN1 [SID56478783], what does the deposit list?
robust z-score, no drug: 0.426; viability, no drug: 1; Outcome: inactive

With HIPK2 [SID56478619], what was measured?
robust z-score, no drug: 0.426; viability, no drug: 1; Outcome: inactive

What did the screen give for MAST3 [SID152151496]?
robust z-score, no drug: 0.426; viability, no drug: 1; Outcome: inactive

Which result is listed for ATM [SID152150358]?
robust z-score, no drug: 0.426; viability, no drug: 1; Outcome: inactive

With STK26 [SID152154531], how do the results read?
robust z-score, no drug: 0.426; viability, no drug: 1; Outcome: inactive

Which result is listed for ADGRL2 [SID152152166]?
robust z-score, no drug: 0.426; viability, no drug: 1; Outcome: inactive

For ADK [SID56478860], what does the deposit list?
robust z-score, no drug: 0.426; viability, no drug: 1; Outcome: inactive

With STK25 [SID135620899], how do the results read?
robust z-score, no drug: 0.371; viability, no drug: 0.995; Outcome: inactive

What is on record for LIMK1 [SID135621436]?
robust z-score, no drug: 0.426; viability, no drug: 1; Outcome: inactive

What did the screen give for HIPK3 [SID152151658]?
robust z-score, no drug: 0.426; viability, no drug: 1; Outcome: inactive

What is on record for UHMK1 [SID152150381]?
robust z-score, no drug: 0.426; viability, no drug: 1; Outcome: inactive

With NME5 [SID56479119], what does the deposit list?
robust z-score, no drug: 0.426; viability, no drug: 1; Outcome: inactive

How did the screen score FLT3 [SID152150278]?
robust z-score, no drug: 0.426; viability, no drug: 1; Outcome: inactive

For STK40 [SID56479025], how do the results read?
robust z-score, no drug: 0.426; viability, no drug: 1; Outcome: inactive

For RPS6KB1 [SID152147142], what does the deposit list?
robust z-score, no drug: 0.426; viability, no drug: 1; Outcome: inactive

With CAMK2G [SID56478805], what does the deposit list?
robust z-score, no drug: -0.442; viability, no drug: 0.925; Outcome: inactive

Copied from the list:
Value of LIMK1 [SID135621436] under “viability, no drug”: 1
UHMK1 [SID152150381], robust z-score, no drug → 0.426
SCYL1 [SID152146872], viability, no drug = 1
